Experimental findings from paper PMC3108997 are described below.

Sequences of proteins named here, by UniProt entry; tags and fusion partners are left off.
UniProt P09067: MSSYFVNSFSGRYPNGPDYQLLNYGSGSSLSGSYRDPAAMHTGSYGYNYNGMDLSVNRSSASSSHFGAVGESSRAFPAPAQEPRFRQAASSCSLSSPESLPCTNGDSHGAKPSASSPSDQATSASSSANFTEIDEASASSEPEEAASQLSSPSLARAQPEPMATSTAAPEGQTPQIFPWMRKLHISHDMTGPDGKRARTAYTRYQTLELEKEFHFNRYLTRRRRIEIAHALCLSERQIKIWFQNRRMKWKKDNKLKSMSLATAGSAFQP

Results are given in words; binding and its absence hold for the method and conditions named. Binding seen in cells or lysates may run through a third protein. Some entries that bind do so weakly or less than the wild type.

The target of the assay is HOXB5 (human) (UniProt P09067). As to the kind of experiment: co-IP; nuclear extract of transfected SK-N-SH cells, pre-cleared with Protein G-Agarose; IP with mouse anti-HOXB5 (133C3a) or non-immunized mouse IgG control, 4°C, 3 hours; blot with anti-NKX2-1 (F-12).

B1: NKX2-1 (protein, UniProt P43699 1-371)
chain: MSMSPKHTTPFSVSDILSPLEESYKKVGMEGGGLGAPLAAYRQGQAAPPTAAMQQHAVGHHGAVTAAYHMTAAGVPQLSHSAVGGYCNGNLGNMSELPPYQDTMRNSASGPGWYGANPDPRFPAISRFMGPASGMNMSGMGGLGSLGDVSKNMAPLPSAPRRKRRVLFSQAQVYELERRFKQQKYLSAPEREHLASMIHLTPTQVKIWFQNHRYKMKRQAKDKAAQQQLQQDSGGGGGGGGTGCPQQQQAQQQSPRRVAVPVLVKDGKPCQAGAPAPGAASLQGHAQQQAQHQAQAAQAAAAAISVGSGGAGLGAHPGHQPGSAGQSPDLAHHAASPAALQGQVSSLSHLNSSGSDYGTMSCSTLLYGRTW
With B1, the binding entry is recorded as “binds”.
